From patent publication US20060128757A1, “Pyridine derivatives useful as cyclooxygenase inhibitor” (Astellas Pharma Inc., priority 2001, published 2006)

Test system: stomachs (gastric lesions) of rats
Test: Gastric ulcerogenic activity in rats
Assay type: in vivo, Male Sprague-Dawley rats
Conditions: oral, 5 h before autopsy, rats fasted 24 h
Protocol: Male Sprague-Dawley rats were used after a 24 h fast. Drugs were orally administered to groups of 10 rats 5 h before autopsy. The stomachs were macroscopically inspected and scored as follows: 0, no evidence of gastric lesions; 1, spotty submucosal hemorrhage or appearance of erosion; 3, widespread adherence of blood and large areas of submucosal hemorrhage or one to four small ulcers; 4, more than four small ulcers or one large ulcer; 5, numerous large ulcers.

## COc1ccc(-n2nc(C(F)(F)F)cc2-c2ccc(Cl)cc2)cc1 [F, SC-560]
  Gastric ulcerogenic activity (Non-toxic dose): <100 mg/kg
